Data published in patent US20090258914A1, “Inhibitor of Anti-Apoptotic Proteins” (Burnham Institute for Medical Research, priority 2008, published 2009).
At least one compound was matched to its structure with a doubt left.

System: B6Bcl2 mice
Test: Spleen shrinkage / in vivo efficacy in B6Bcl2 transgenic mice
Conditions: B6BCL-2 transgenic mouse
Excerpt: In the same model, another known compound apogossypolone was not effective. Gossypol is described, e.g., in U.S. Pat. No. 7,186,708. Apogossypol is described, e.g., in Meyers A. I.; Willemsen J. J., Tetrahedron Letters, vol. 37, No. 6, February, […], pp. 791-792.
Compound A was given to B6Bcl2 mice at a daily dose of […] for 3 days through oral gavage. […] Both compound A and the negative control were preliminarily dissolved in PBS. After 3 days, the spleens of the animals were removed and weighed.
In parallel experiments, compound A was also administered intraperitoneally at […], as were some related compounds, such as compounds 1 and 2 shown in Table 1, above. In these experiments, after 24 hours, the spleens of the animals were removed and weighed.
The results of efficacy of compound A administered intraperitoneally were also compared with the results obtained when compound A was administered orally. […] Accordingly, compound A can be administered in both ways, orally or intraperitoneally. […] It was also shown that compound A can be administered safely.

## Cc1cc2c(C(C)C)c(O)c(O)c(C=O)c2c(O)c1-c1c(C)cc2c(C(C)C)c(O)c(O)c(C=O)c2c1O [gossypol]
  order of potency in terms of in vivo efficacy: compound A>apogossypol=gossypol
